According to article PMC10657365:
These are yes or no findings as the source states them, for the method shown. In cells and extracts the contact can be indirect. A yes stands for co-enrichment or nearness to the bait. Other partners may have been found.

By UniProt entry, the sequences of proteins in these tests, tags left out.
UniProt Q99613: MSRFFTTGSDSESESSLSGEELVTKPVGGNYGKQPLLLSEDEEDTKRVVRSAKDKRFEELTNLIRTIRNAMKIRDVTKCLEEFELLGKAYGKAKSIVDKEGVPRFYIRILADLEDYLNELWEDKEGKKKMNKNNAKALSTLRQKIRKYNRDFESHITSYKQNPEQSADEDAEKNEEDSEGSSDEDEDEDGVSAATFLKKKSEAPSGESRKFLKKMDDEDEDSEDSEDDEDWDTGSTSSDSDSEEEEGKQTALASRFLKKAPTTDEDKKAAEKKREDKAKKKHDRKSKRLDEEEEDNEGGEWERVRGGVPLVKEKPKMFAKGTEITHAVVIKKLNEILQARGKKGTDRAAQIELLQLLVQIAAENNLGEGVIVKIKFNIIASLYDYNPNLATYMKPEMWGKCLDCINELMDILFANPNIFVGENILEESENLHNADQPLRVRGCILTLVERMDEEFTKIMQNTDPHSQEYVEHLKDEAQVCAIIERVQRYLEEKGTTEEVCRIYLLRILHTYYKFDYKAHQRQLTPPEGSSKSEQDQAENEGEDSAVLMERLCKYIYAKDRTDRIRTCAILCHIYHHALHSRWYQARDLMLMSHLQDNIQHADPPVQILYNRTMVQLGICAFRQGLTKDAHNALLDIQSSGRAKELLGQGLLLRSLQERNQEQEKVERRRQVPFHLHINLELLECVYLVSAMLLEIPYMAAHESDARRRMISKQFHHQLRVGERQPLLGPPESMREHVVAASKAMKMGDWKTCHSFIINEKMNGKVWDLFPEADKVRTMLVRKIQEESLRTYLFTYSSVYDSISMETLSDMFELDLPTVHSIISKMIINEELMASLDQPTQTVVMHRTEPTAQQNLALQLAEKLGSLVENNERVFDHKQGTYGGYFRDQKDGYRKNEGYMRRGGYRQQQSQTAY

Molecular target: Smad ubiquitin regulatory factor 2 (SMURF2), bait of the mass spectrometry analysis in OC cells (human (in human OC cells)) (UniProt Q9HAU4)
Assay: affinity purification with mass spectrometry; SMURF2 precipitate from OC cells analysed by mass spectrometry

EIF3c (from UniProt Q99613 1-913)
binding: binds
